# ± gives the standard deviation of the averaged measurements. The list shows a part of the results.
# Experiments:
# Test in all cases: NP40-soluble protein abundance relative to vehicle (solubility fold change) (ratio); higher = more soluble protein in presence of GTP
# [1] = target: T1, USP1 (UniProt O94782)
# T1 sequence (whole entry): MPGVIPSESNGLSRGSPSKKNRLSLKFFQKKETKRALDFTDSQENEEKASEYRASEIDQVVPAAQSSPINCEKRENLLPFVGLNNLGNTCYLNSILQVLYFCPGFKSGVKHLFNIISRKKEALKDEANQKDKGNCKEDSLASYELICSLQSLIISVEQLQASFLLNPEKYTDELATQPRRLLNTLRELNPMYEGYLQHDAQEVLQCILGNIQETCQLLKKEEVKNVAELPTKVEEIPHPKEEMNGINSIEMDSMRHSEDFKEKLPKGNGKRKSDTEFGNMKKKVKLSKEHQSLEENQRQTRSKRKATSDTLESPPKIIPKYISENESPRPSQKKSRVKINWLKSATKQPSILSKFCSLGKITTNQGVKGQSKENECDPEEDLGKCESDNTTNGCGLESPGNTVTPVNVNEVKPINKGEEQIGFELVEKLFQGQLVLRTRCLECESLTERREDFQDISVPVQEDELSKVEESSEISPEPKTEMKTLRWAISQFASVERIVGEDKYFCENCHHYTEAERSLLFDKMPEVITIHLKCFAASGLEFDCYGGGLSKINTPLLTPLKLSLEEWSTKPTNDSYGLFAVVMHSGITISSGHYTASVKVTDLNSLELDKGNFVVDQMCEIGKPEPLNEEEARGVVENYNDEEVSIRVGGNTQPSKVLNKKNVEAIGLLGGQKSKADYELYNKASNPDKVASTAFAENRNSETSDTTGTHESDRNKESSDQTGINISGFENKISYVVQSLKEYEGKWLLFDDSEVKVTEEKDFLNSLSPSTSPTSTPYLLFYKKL
# Method in brief: (§1)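 In three independent experiments, Jurkat crude lysate made by Dounce homogenisation was treated for 10 min at room temperature and then 3 min at 37 °C with eight concentrations ranging from 0.1 to 10 mM. It was then solubilised with 0.8% NP40 plus benzonase for 60 min at 4 °C and ultracentrifuged. The supernatant was TMT-labelled for LC-MS/MS, and each value is the fold change against the detergent-processed vehicle for the same replicate, using vsn-normalised intensities.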
# [2] = target: T2, UniProt O95294 and related entries
# T2 sequence (whole entry): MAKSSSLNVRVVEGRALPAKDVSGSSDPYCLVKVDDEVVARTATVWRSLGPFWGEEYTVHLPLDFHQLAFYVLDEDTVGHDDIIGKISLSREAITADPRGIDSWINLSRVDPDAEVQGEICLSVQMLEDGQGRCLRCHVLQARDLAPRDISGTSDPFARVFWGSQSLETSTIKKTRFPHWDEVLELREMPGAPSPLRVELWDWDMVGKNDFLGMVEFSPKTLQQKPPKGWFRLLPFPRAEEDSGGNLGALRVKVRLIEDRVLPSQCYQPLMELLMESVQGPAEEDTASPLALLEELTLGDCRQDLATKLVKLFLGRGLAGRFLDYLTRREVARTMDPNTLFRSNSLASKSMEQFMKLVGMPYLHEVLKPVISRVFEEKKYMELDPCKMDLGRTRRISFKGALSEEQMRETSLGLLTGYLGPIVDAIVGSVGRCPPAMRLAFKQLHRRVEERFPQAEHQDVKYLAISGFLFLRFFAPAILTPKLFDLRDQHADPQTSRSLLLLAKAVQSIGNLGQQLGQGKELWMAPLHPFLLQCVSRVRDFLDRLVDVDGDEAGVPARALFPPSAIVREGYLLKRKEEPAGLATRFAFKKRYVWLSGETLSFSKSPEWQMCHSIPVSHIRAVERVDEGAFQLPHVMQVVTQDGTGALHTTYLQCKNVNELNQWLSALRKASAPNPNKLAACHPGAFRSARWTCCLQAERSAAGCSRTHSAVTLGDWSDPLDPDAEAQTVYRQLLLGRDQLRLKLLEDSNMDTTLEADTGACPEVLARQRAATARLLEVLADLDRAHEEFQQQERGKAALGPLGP
# Method in brief: as §1
# [3] = target: T3, UniProt O95379-3|O95379-4
# T3 sequence (whole entry): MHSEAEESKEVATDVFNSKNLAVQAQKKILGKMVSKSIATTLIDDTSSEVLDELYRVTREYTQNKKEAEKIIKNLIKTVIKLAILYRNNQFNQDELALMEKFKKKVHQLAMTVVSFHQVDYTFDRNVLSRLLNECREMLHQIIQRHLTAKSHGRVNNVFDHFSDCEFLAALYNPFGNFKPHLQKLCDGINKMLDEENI
# Method in brief: as §1
# [4] = target: T4, UniProt O95479 and related entries
# T4 sequence (whole entry): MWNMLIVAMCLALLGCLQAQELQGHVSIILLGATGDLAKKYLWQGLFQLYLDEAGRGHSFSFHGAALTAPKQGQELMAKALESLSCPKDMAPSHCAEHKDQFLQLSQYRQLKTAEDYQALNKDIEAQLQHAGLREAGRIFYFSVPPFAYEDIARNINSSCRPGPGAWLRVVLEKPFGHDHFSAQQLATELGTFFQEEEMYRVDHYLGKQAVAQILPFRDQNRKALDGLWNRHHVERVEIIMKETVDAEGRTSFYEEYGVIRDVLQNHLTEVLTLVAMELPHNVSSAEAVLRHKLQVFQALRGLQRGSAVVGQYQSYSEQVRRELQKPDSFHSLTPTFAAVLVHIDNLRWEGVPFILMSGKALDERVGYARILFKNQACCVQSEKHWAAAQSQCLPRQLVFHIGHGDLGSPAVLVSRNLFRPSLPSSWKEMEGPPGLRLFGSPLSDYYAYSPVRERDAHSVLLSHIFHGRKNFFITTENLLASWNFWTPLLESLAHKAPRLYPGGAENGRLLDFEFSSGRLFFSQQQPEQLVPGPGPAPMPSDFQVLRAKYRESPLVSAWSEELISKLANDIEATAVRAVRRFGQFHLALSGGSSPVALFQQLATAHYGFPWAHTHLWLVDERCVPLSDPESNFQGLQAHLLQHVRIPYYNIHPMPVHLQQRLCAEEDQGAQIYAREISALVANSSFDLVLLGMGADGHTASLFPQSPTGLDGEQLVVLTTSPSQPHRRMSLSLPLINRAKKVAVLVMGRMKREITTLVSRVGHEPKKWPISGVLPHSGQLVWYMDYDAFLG
# Method in brief: as §1
# [5] = target: T5, UniProt O95487 and related entries
# T5 sequence (whole entry): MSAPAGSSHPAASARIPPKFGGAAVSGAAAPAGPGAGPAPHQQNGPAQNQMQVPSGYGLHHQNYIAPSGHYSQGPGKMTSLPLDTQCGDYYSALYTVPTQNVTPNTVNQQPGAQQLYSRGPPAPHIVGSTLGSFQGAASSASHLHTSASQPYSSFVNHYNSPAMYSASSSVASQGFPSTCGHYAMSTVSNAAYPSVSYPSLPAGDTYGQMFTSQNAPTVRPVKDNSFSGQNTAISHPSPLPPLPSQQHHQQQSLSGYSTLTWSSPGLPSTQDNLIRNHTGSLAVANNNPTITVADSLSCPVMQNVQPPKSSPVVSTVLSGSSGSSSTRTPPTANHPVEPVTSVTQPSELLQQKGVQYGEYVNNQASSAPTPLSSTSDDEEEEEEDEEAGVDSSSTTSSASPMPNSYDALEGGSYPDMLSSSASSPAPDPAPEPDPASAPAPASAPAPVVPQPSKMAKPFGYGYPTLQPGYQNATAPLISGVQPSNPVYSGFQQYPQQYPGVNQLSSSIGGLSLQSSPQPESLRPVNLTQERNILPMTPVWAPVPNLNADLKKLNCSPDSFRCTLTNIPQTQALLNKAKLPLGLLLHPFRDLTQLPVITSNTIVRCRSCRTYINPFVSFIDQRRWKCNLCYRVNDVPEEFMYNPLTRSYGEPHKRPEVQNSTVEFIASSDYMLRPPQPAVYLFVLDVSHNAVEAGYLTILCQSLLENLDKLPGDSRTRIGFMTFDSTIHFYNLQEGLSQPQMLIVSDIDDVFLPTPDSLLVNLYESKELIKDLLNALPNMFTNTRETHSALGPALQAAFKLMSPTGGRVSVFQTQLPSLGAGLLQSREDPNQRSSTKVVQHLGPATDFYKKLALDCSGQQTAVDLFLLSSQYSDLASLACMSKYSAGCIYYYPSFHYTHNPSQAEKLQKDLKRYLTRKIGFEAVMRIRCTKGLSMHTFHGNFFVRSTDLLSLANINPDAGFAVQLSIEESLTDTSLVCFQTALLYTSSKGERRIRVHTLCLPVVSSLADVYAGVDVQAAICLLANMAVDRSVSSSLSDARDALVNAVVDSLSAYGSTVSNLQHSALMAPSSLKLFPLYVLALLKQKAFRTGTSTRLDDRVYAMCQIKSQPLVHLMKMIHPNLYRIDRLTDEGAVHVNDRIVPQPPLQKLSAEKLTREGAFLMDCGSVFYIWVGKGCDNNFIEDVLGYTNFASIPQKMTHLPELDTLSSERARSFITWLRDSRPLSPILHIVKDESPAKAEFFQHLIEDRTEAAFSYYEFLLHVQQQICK
# Method in brief: as §1
# [6] = target: T6, UniProt O95777
# T6 sequence (whole entry): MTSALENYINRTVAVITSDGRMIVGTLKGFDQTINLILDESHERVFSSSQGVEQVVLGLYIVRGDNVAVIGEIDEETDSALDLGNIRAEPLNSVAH
# Method in brief: as §1
# [7] = target: T7, VAMP5 (UniProt O95183)
# T7 sequence (whole entry): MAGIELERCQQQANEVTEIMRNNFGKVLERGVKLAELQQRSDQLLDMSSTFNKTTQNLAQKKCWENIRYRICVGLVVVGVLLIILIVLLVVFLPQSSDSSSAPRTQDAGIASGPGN
# Method in brief: as §1
smiles,measurement,setting,value
Nc1nc2c(ncn2[C@@H]2O[C@H](COP(=O)(O)OP(=O)(O)OP(=O)(O)O)[C@@H](O)[C@H]2O)c(=O)[nH]1 [guanosine triphosphate],NP40-soluble protein abundance,[1]; concentration: 4mM,0.983 ± 0.039
same,NP40-soluble protein abundance,[1]; concentration: 6mM,0.976 ± 0.016
same,NP40-soluble protein abundance,[1]; concentration: 8mM,0.995 ± 0.025
same,NP40-soluble protein abundance,[1]; concentration: 10mM,0.981 ± 0.026
same,NP40-soluble protein abundance,[2]; concentration: 0.1mM,0.945 ± 0.051
same,NP40-soluble protein abundance,[2]; concentration: 0.5mM,0.934 ± 0.2
same,NP40-soluble protein abundance,[2]; concentration: 1mM,0.928 ± 0.15
same,NP40-soluble protein abundance,[2]; concentration: 2mM,0.894 ± 0.15
same,NP40-soluble protein abundance,[2]; concentration: 4mM,0.947 ± 0.12
same,NP40-soluble protein abundance,[2]; concentration: 6mM,1.01 ± 0.039
same,NP40-soluble protein abundance,[2]; concentration: 8mM,0.979 ± 0.13
same,NP40-soluble protein abundance,[2]; concentration: 10mM,1.04 ± 0.15
same,NP40-soluble protein abundance,[3]; concentration: 0.1mM,0.897 ± 0.024
same,NP40-soluble protein abundance,[3]; concentration: 0.5mM,0.877 ± 0.057
same,NP40-soluble protein abundance,[3]; concentration: 1mM,0.938 ± 0.064
same,NP40-soluble protein abundance,[3]; concentration: 2mM,0.917 ± 0.093
same,NP40-soluble protein abundance,[3]; concentration: 4mM,0.922 ± 0.1
same,NP40-soluble protein abundance,[3]; concentration: 6mM,0.933 ± 0.095
same,NP40-soluble protein abundance,[3]; concentration: 8mM,0.879 ± 0.13
same,NP40-soluble protein abundance,[3]; concentration: 10mM,0.955 ± 0.086
same,NP40-soluble protein abundance,[4]; concentration: 0.1mM,1.04 ± 0.028
same,NP40-soluble protein abundance,[4]; concentration: 0.5mM,0.999 ± 0.023
same,NP40-soluble protein abundance,[4]; concentration: 1mM,1.07 ± 0.044
same,NP40-soluble protein abundance,[4]; concentration: 2mM,1.05 ± 0.081
same,NP40-soluble protein abundance,[4]; concentration: 4mM,0.975 ± 0.093
same,NP40-soluble protein abundance,[4]; concentration: 6mM,1.033 ± 0.0057
same,NP40-soluble protein abundance,[4]; concentration: 8mM,1.05 ± 0.16
same,NP40-soluble protein abundance,[4]; concentration: 10mM,1.02 ± 0.043
same,NP40-soluble protein abundance,[5]; concentration: 0.1mM,1.03 ± 0.059
same,NP40-soluble protein abundance,[5]; concentration: 0.5mM,1.05 ± 0.056
same,NP40-soluble protein abundance,[5]; concentration: 1mM,1.03 ± 0.036
same,NP40-soluble protein abundance,[5]; concentration: 2mM,1.02 ± 0.053
same,NP40-soluble protein abundance,[5]; concentration: 4mM,1.03 ± 0.038
same,NP40-soluble protein abundance,[5]; concentration: 6mM,1.01 ± 0.055
same,NP40-soluble protein abundance,[5]; concentration: 8mM,1.02 ± 0.03
same,NP40-soluble protein abundance,[5]; concentration: 10mM,1.01 ± 0.034
same,NP40-soluble protein abundance,[6]; concentration: 0.1mM,0.988 ± 0.029
same,NP40-soluble protein abundance,[6]; concentration: 0.5mM,0.965 ± 0.053
same,NP40-soluble protein abundance,[6]; concentration: 1mM,1.03 ± 0.029
same,NP40-soluble protein abundance,[6]; concentration: 2mM,1.03 ± 0.051
same,NP40-soluble protein abundance,[6]; concentration: 4mM,1.063 ± 0.0049
same,NP40-soluble protein abundance,[6]; concentration: 6mM,1.05 ± 0.022
same,NP40-soluble protein abundance,[6]; concentration: 8mM,0.968 ± 0.046
same,NP40-soluble protein abundance,[6]; concentration: 10mM,0.981 ± 0.043
same,NP40-soluble protein abundance,[7]; concentration: 0.1mM,0.923 ± 0.083
same,NP40-soluble protein abundance,[7]; concentration: 0.5mM,0.882 ± 0.078
same,NP40-soluble protein abundance,[7]; concentration: 1mM,0.973 ± 0.12
same,NP40-soluble protein abundance,[7]; concentration: 2mM,0.967 ± 0.066
same,NP40-soluble protein abundance,[7]; concentration: 4mM,0.92 ± 0.037
same,NP40-soluble protein abundance,[7]; concentration: 6mM,0.933 ± 0.043
same,NP40-soluble protein abundance,[7]; concentration: 8mM,0.896 ± 0.15
same,NP40-soluble protein abundance,[7]; concentration: 10mM,0.964 ± 0.06

# Part of the list above, with bars between the fields:
smiles | measurement | setting | value
Nc1nc2c(ncn2[C@@H]2O[C@H](COP(=O)(O)OP(=O)(O)OP(=O)(O)O)[C@@H](O)[C@H]2O)c(=O)[nH]1 [guanosine triphosphate] | NP40-soluble protein abundance | [2]; concentration: 0.5mM | 0.934 ± 0.2
same | NP40-soluble protein abundance | [4]; concentration: 4mM | 0.975 ± 0.093

# Reference: the supplement of paper PMC6411743
